For 42 sequences, binding signal results are on record in publication PMC7819943, “Rice protein-binding microarrays: a tool to detect cis-acting elements near promoter regions in rice”.

Protein sequences, listed by entry. Tags and fused reporters are not part of them.
UniProt Q0JBA9, entry or part of it: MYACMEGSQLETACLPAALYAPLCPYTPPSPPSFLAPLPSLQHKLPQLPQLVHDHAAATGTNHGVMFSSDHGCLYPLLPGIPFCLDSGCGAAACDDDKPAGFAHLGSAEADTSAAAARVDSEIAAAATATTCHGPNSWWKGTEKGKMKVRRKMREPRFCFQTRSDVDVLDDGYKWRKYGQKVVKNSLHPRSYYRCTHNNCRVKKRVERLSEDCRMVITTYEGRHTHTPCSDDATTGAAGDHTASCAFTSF

Some of the results follow.

The target in the assay is OsWRKY34 (Oryza sativa, UniProt Q0JBA9 1-250). The assay is described as follows: protein-binding microarray (RPBM); PBS, 2% BSA, 51.3 ng/ul salmon testes DNA, 50 uM zinc acetate, 200 nM TF, 25 C, 1 h; high values mean tight binding. The following applies: protein: recombinant; tags: N-terminal polyhistidine and DsRed monomer fusion (pET32a); label: CyDye5-dUTP incorporated in the synthesized complementary strand; 3' TTTTT single-stranded linker to array surface; dsDNA, one strand shown. The essentials:
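Binding signal is reported as fluorescence intensity per feature (arbitrary units) from an Axon 4000B scanner. Incubation used 200 nM of each Ni–NTA-purified, N-terminally polyhistidine- and DsRed-fused transcription factor from E. coli BL21-CodonPlus on a double-stranded custom Agilent array for 1 h at 25 °C, with 50 µM zinc acetate in the buffer, followed by washing.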
“TTCTGCTTCTGGTTTTGGGCGATTCGGCGGTTGCTGGACTCGGAGTCACCTAGTGCAG”: the binding signal was 11400 fluorescence intensity (a.u.).

For “GGTAATTGGAAGCCTATGCACGTGGGCGGGGAGGCGTCGGCGGAGTCACCTAGTGCAG”, the binding signal is 8330 fluorescence intensity (a.u.).

On to “TTAAGTCCTTGTGCTGTCCCTGTGATTTTGGTGCCAAAGACGGAGTCACCTAGTGCAG”, for which the binding signal was 9250 fluorescence intensity (a.u.).

As to “GGGGAGGGGTTGGATGACCCTAACGGCGACGCGACGGGCGCGGAGTCACCTAGTGCAG”, the binding signal is 11000 fluorescence intensity (a.u.).

For the sequence “CCACCTCCGGTTGCCGCTCCGTCCACTCATGTCGTTCAGCCGGAGTCACCTAGTGCAG”, the binding signal was 9460 fluorescence intensity (a.u.).

Consider “ACAGTCGGACTGTGCAATTGGTTTTTTTCGGTCCACATTTCGGAGTCACCTAGTGCAG”, for which the binding signal was 9720 fluorescence intensity (a.u.).

On to “AAAAACTTAAGTTGTGCCAAGACGCCACCTTTACTCACGCCGGAGTCACCTAGTGCAG”, for which the binding signal was 8160 fluorescence intensity (a.u.).

Take “CCGGACCCTTGCTCGTCATTCGCTTGCGAACTGAAAACCACGGAGTCACCTAGTGCAG”: the binding signal was 8930 fluorescence intensity (a.u.).

As for “AAAGTTTTGTGTCCATTCTTGAATCACTATCACTTTAGTCCGGAGTCACCTAGTGCAG”, the binding signal was 9000 fluorescence intensity (a.u.).

With “ACAGCGACCTTTTGCTGCAAAGCTTTGTTGGGTTTGGGCTCGGAGTCACCTAGTGCAG”, the binding signal is 8470 fluorescence intensity (a.u.).

Turning to “ACTCCACCAGTCCACCCACTCTTTCCTTCCCGCATCTTCCCGGAGTCACCTAGTGCAG”, the binding signal was 9330 fluorescence intensity (a.u.).

Consider “CGATCGATGGGGATGTGGGGTGTGTTAGTTCCTTCGTCTTCGGAGTCACCTAGTGCAG”, for which the binding signal is 9850 fluorescence intensity (a.u.).

For “TAAACTTCCAACTTTTCCGTCACATCGTTTCAATTTCAACCGGAGTCACCTAGTGCAG”, the binding signal is 8770 fluorescence intensity (a.u.).

Turning to “GCGAAAAAGCGGTGGTGGTGGTGGTGGTGCGGATTGAGGACGGAGTCACCTAGTGCAG”, the binding signal was 13100 fluorescence intensity (a.u.).

Consider “TGTATAATTTGTAATCACAATGGCGGCATATACTTCTATCCGGAGTCACCTAGTGCAG”, for which the binding signal is 8160 fluorescence intensity (a.u.).

Regarding “CGATCAGAACGATTCGCTTGCTTCTTTCCCGGGTGTTAGTCGGAGTCACCTAGTGCAG”, the binding signal is 10500 fluorescence intensity (a.u.).

Regarding “TTCATCCCTCAAGAGGATATCCCCTTGTTTCGTGCATGTTCGGAGTCACCTAGTGCAG”, the binding signal was 8730 fluorescence intensity (a.u.).

Consider “CATTTCTCAGCTTCTGCTCTCGTTTATAGTATGTTTTTTTCGGAGTCACCTAGTGCAG”, for which the binding signal is 11200 fluorescence intensity (a.u.).

“TTCTCAAGAGCCCATATGTCATCAACTGGTTTCAATTTAACGGAGTCACCTAGTGCAG”: the binding signal is 8040 fluorescence intensity (a.u.).

Take “CGTAAATTGCCATGTCTGTTCATCTTGCTTATCAGAACGGCGGAGTCACCTAGTGCAG”: the binding signal is 9390 fluorescence intensity (a.u.).

As for “CCCCATATCTCATCTTCCATCACCAACAATCTCTCTAACCCGGAGTCACCTAGTGCAG”, the binding signal was 9580 fluorescence intensity (a.u.).

For “ACTACTTTTTTTGGGTTGATGTGCTTGAATTTGAAGAGAACGGAGTCACCTAGTGCAG”, the binding signal was 11700 fluorescence intensity (a.u.).

Turning to “CCGAGCCGTAGGCAGCCCCATGTACTTCCATGCTATTTCTCGGAGTCACCTAGTGCAG”, the binding signal is 9080 fluorescence intensity (a.u.).

As to “GCTCGTTGCCCTACTCTTTGCTCGGCTCGGGTGGGTCCCACGGAGTCACCTAGTGCAG”, the binding signal was 9940 fluorescence intensity (a.u.).

For the sequence “TTTAGTATATAAAAGATTATAGGGGAGGTTCATTACTTTCCGGAGTCACCTAGTGCAG”, the binding signal is 8410 fluorescence intensity (a.u.).

Turning to “CCTCCGCTTCTTCGCCGCCGCCGCCATCCCGCCCTAGCGACGGAGTCACCTAGTGCAG”, the binding signal was 9070 fluorescence intensity (a.u.).

Take “ATCTCTCTCATCTCCTCTCTCTCTCTCTCTCTCTTGTTTCCGGAGTCACCTAGTGCAG”: the binding signal is 9260 fluorescence intensity (a.u.).

In the case of “GGATACATGTCTTCCCGTTTCGTAACCCATATTTTTCTAACGGAGTCACCTAGTGCAG”, the binding signal is 10800 fluorescence intensity (a.u.).

Regarding “AGCCACCAACTCCGTCGTCGTGCCCTACCTATGTGATAGACGGAGTCACCTAGTGCAG”, the binding signal is 10000 fluorescence intensity (a.u.).

As for “GTTGCTTGTGTTGTATATTATATATTTCTTTTACCATTCTCGGAGTCACCTAGTGCAG”, the binding signal was 14700 fluorescence intensity (a.u.).

Turning to “GATCCAAATCCTGACTGCTCTCTTATACTCCATATTGCTCCGGAGTCACCTAGTGCAG”, the binding signal was 9390 fluorescence intensity (a.u.).

As for “CCTAGCTAATTTCATCTCCCACGCCGAACGGAAACACATCCGGAGTCACCTAGTGCAG”, the binding signal was 8300 fluorescence intensity (a.u.).

“AATATGTAGATTTATCTCGGTTTCTATTACCACATATTTTCGGAGTCACCTAGTGCAG”: the binding signal was 10800 fluorescence intensity (a.u.).

Take “CAGTGTTCAGTGCCACCACCATCTTCTTCTTCTTCTTCTTCGGAGTCACCTAGTGCAG”: the binding signal was 9740 fluorescence intensity (a.u.).

For “TTAGTATAGCTGTATTCTTCCCAACTTCCTATTTTCCTCTCGGAGTCACCTAGTGCAG”, the binding signal was 8540 fluorescence intensity (a.u.).

Regarding “TCGCTGCTCTGCCCTTTTCCCTTTTTTTTTCTTTCTTCATCGGAGTCACCTAGTGCAG”, the binding signal was 10200 fluorescence intensity (a.u.).

On to “GGGAGAGGATAATGCTTTGATCAATCGGCTGCACTTAATTCGGAGTCACCTAGTGCAG”, for which the binding signal is 8190 fluorescence intensity (a.u.).

In the case of “TTTGTTCTGTATTGGGCCTTTCCAACCTCGATCCCAACAACGGAGTCACCTAGTGCAG”, the binding signal is 8192 fluorescence intensity (a.u.).

Consider “CGTTTGTTGGGTGCGGCGGGCGGGGAGGAGCTCGTGAATGCGGAGTCACCTAGTGCAG”, for which the binding signal is 19600 fluorescence intensity (a.u.).

As to “ATAGCACCTCGAAACACCAAACTATTGCTATTAACATTTTCGGAGTCACCTAGTGCAG”, the binding signal is 9650 fluorescence intensity (a.u.).

On to “CCTCTCTCTCTCCAAATCTGTGGACATTTCACGCGCGCTCCGGAGTCACCTAGTGCAG”, for which the binding signal was 10400 fluorescence intensity (a.u.).

As for “GGCTGCTCATTGTCGTCTCATCTGGGCTTTTCAATGGGCTCGGAGTCACCTAGTGCAG”, the binding signal is 8590 fluorescence intensity (a.u.).
